The other results are listed elsewhere or left out. Many values rest on one well or one pass, so single values are uncertain.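 Labelled rat cortical synaptosomes were engulfed by primary human fetal astrocytes. Engulfment equaled a red/green ratio, corrected for calcein live-cell signal and normalized to the plate median. Compounds were toxic when calcein dropped over 30%, and reduced phagocytosis when below 70% of the median above 5 µM.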
Tests used:
Human fetal astrocytes [1] = test: loss of total cells relative to no-compound high-control median (toxicity); higher = more toxic (fewer cells); conditions: 24 h
Human fetal astrocytes [2] = test: synaptosome phagocytosis (pHrodo/calcein intensity ratio) relative to plate median of data wells; higher = more phagocytosis; conditions: 24 h

Row | SMILES | loss of total cells (Human fetal astrocytes [1]; 1.39 µM) [%] | loss of total cells (Human fetal astrocytes [1]; 2.78 µM) [%] | loss of total cells (Human fetal astrocytes [1]; 5.56 µM) [%] | loss of total cells (Human fetal astrocytes [1]; 11.11 µM) [%] | loss of total cells (Human fetal astrocytes [1]; 22.22 µM) [%] | synaptosome phagocytosis (Human fetal astrocytes [2]; 1.39 µM) [%] | synaptosome phagocytosis (Human fetal astrocytes [2]; 2.78 µM) [%] | synaptosome phagocytosis (Human fetal astrocytes [2]; 5.56 µM) [%] | synaptosome phagocytosis (Human fetal astrocytes [2]; 11.11 µM) [%] | synaptosome phagocytosis (Human fetal astrocytes [2]; 22.22 µM) [%]
1 | COc1cc(C(C)=O)cc(OC)c1O | 16.2 | 15.5 | 8 | -0.4 | 7.6 | 64.4 | 148 | 132 | 116 | 111
2 | COC(=O)C[C@H]1C(C)(C)[C@@H](OC(C)=O)[C@@H]2CC3C4CC(=O)O[C@@H](c5ccoc5)[C@]4(C)CCC3[C@@]1(C)C2=O (stereo not given in full) | 1.8 | 15.9 | -7.6 | 35.5 | -17.4 | 106 | 113 | 97.2 | 99.7 | 97
3 | CC(=O)O[C@H]1C[C@@]2(C)[C@@H](C[C@@H](O)[C@H]3[C@@]4(C)CC[C@@H](O)[C@@H](C)[C@@H]4CC[C@@]32C)/C1=C(\CCC=C(C)C)C(=O)O | -16.9 | 17.3 | -8.4 | 13 | 48.3 | 108 | 95.6 | 117 | 79.8 | 103
4 | CO[C@H]1C[C@H](O[C@H]2[C@H](C)[C@@H](O[C@@H]3O[C@H](C)C[C@H](N(C)C)[C@H]3O)[C@@H](C)C[C@@]3(CO3)C(=O)[C@H](C)[C@@H](O)[C@@H](C)[C@@H](C)OC(=O)[C@@H]2C)O[C@@H](C)[C@@H]1O | 0.9 | -23.4 | -17.4 | -6.1 | -19.1 | 100 | 108 | 134 | 127 | 128
5 | C=C1CCC2C(CC2(C)C)C(=C)CC/C1=N/O (stereo not given) | 9.1 | 9.3 | -35.1 | 46.5 | 3.3 | 124 | 121 | 92.1 | 152 | 94.9
6 | CC(=O)OC(C)(C)[C@@H]1Cc2cc3ccc(=O)oc3cc2O1 | -13.1 | -21.3 | 11 | 8.8 | 10.4 | 94.2 | 81.2 | 102 | 78.9 | 112
7 | C=C1CC[C@H](O)C/C1=C/C=C1\CCC[C@]2(C)[C@@H]([C@H](C)/C=C/[C@H](C)C(C)C)CC[C@@H]12 | -10.4 | -22 | -12.5 | 7.8 | -11.9 | 92.8 | 110 | 117 | 95.8 | 59.1
8 | COc1cc(/C=C/C(=O)O)cc(OC)c1OC | -35.1 | 2 | -16 | 0.6 | 1.1 | 73.8 | 136 | 79.9 | 112 | 130
9 | C[N+]1(C)CCC(OC(=O)C(O)(c2ccccc2)C2CCCC2)C1 (stereo not given) | 6.2 | 12 | 31.3 | -0.6 | 38.1 | 123 | 105 | 152 | 101 | 159
10 | Cc1coc2c1C(=O)C(=O)c1c-2ccc2c1CCCC2(C)C | -7.4 | 4.7 | 15.4 | 0.7 | 15.6 | 103 | 107 | 131 | 60 | 135
11 | CC(=O)/C(=C\c1ccccc1)CC(=O)O | -8.2 | 0.4 | 7.3 | 14.9 | 21.5 | 104 | 112 | 88.5 | 92.3 | 92.9
12 | CCCc1cc(=O)[nH]c(=S)[nH]1 | -12.8 | -18 | -28.6 | -14.7 | 14.9 | 109 | 104 | 103 | 88.8 | 119
13 | CC(=O)N(c1onc(C)c1C)S(=O)(=O)c1ccc(N)cc1 | -18.5 | -23 | 10.6 | 23.3 | -1.6 | 131 | 99.4 | 108 | 133 | 92.9
14 | CO/N=C(\C(=O)N[C@@H]1C(=O)N2C(C(=O)O)=C(CSc3nc(=O)c(O)nn3C)CS[C@H]12)c1csc(N)n1 | -33.1 | -34.9 | 11.8 | 11.5 | 18.4 | 84.4 | 104 | 136 | 100 | 128
15 | NC[C@@H]1O[C@@H](O[C@H]2[C@H](O)[C@@H](O[C@H]3O[C@H](CO)[C@@H](O)[C@H](N)[C@H]3O)[C@H](N)C[C@@H]2N)[C@@H](O)[C@H](O)[C@H]1O | -26.4 | -1 | 2.8 | -6.6 | 14.9 | 110 | 115 | 95.9 | 118 | 97.5
16 | CN(C)CCOC(=O)C(c1ccccc1)C1(O)CCCC1 (stereo not given) | -13.4 | -24.7 | -43.2 | -16.4 | 22.2 | 102 | 108 | 100 | 83 | 110
17 | COC(=O)[C@@H]1OC(=O)C2OC23[C@@]1(C)CCC1[C@@]2(C)CCC(=O)C(C)(C)C2C[C@@H](OC(C)=O)[C@]13C (stereo not given in full) | 5.4 | -15.3 | -6.1 | 32.3 | -16.7 | 132 | 87.3 | 95.6 | 96.3 | 70.4
18 | CCCCOC(=O)c1ccc(O)cc1 | 33.7 | 4.7 | -13 | 43.2 | -0.4 | 117 | 83.4 | 85.2 | 129 | 102
19 | Cc1c(NC(C)C)c(=O)n(-c2ccccc2)n1C | 8.3 | 1.8 | 10.1 | -5.4 | 4.5 | 119 | 139 | 103 | 127 | 112
20 | COc1ccc2c(c1)CC[C@@H]1[C@@H]2CC[C@]2(C)[C@@H](O)CC[C@@H]12 | 4.7 | -4.7 | -10.9 | -5.4 | 4.5 | 90.6 | 27.7 | 57.9 | 97.9 | 73.2
21 | CCOC(=O)c1c(C)cc(O)cc1O | -4 | 5.3 | 43.5 | 1.9 | 0.4 | 79.5 | 106 | 138 | 85.7 | 100

Reformatted tab-delimited: part of the list above.
Row	SMILES	loss of total cells (Human fetal astrocytes [1]; 1.39 µM) [%]	loss of total cells (Human fetal astrocytes [1]; 2.78 µM) [%]	loss of total cells (Human fetal astrocytes [1]; 5.56 µM) [%]	loss of total cells (Human fetal astrocytes [1]; 11.11 µM) [%]	loss of total cells (Human fetal astrocytes [1]; 22.22 µM) [%]	synaptosome phagocytosis (Human fetal astrocytes [2]; 1.39 µM) [%]	synaptosome phagocytosis (Human fetal astrocytes [2]; 2.78 µM) [%]	synaptosome phagocytosis (Human fetal astrocytes [2]; 5.56 µM) [%]	synaptosome phagocytosis (Human fetal astrocytes [2]; 11.11 µM) [%]	synaptosome phagocytosis (Human fetal astrocytes [2]; 22.22 µM) [%]
18	CCCCOC(=O)c1ccc(O)cc1	33.7	4.7	-13	43.2	-0.4	117	83.4	85.2	129	102
19	Cc1c(NC(C)C)c(=O)n(-c2ccccc2)n1C	8.3	1.8	10.1	-5.4	4.5	119	139	103	127	112

— the supplement of paper PMC10689618
